Experimental data: PubChem BioAssay AID1159578 (Peter MacCallum Cancer Centre, 2015)
Aim: 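Genome-wide hunt for genes controlling movement of lymphatic endothelial cells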 (primary screen). Cell system: human lymphatic endothelial cells. Reagent: siRNA pool against human genes, 40 nM. Timing: 48 h after transfection. Measurement: 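Cells stained with dye and imaged after a scratch; covered wound area and nuclei counted, duplicates averaged, migration set against mock wells and turned into a robust z-score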. Scale: migration robust z-score: higher = faster migration into the scratch; nuclei per well: higher = more cells in the well. Rule for the call: 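Pools averaging fewer than 3300 nuclei are never called; remaining pools count as changed when migration robust z lies outside -2 to 2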. Meaning of the calls: active = migration changed; inactive = no migration change, or too few cells.
The whole screen tested about 18,000 reagents; below is a random part of them. Of all reagents, about 1,030 (5.7%) are marked active. 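Inactive calls also include pools with fewer than 3300 nuclei, whose migration was not assessed.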 Raw values vary from plate to plate and are shown uncorrected. Not all columns of the deposit are shown. Reagent sequences are not shown.

MFSD2A (GeneID 84879): migration robust z-score = -0.06; migration class with cell-count check = migration z between -2 and 2; enough cells; nuclei per well, duplicate mean = 5754; Outcome = inactive
POM121L2 (GeneID 94026): migration robust z-score = -1.64; migration class with cell-count check = migration z between -2 and 2; enough cells; nuclei per well, duplicate mean = 6382; Outcome = inactive
PTGDS (GeneID 5730): migration robust z-score = -2.18; migration class with cell-count check = migration z below -2; enough cells; nuclei per well, duplicate mean = 4465; Outcome = active
TMTC4 (GeneID 84899): migration robust z-score = 0.02; migration class with cell-count check = migration z between -2 and 2; enough cells; nuclei per well, duplicate mean = 4684; Outcome = inactive
GNAO1 (GeneID 2775): migration robust z-score = -0.19; migration class with cell-count check = migration z between -2 and 2; enough cells; nuclei per well, duplicate mean = 6492; Outcome = inactive
UNC45B (GeneID 146862): migration robust z-score = -0.32; migration class with cell-count check = migration z between -2 and 2; enough cells; nuclei per well, duplicate mean = 6752; Outcome = inactive
TECRL (GeneID 253017): migration robust z-score = 0.71; migration class with cell-count check = migration z between -2 and 2; enough cells; nuclei per well, duplicate mean = 5799; Outcome = inactive
KRT72 (GeneID 140807): migration robust z-score = 0.48; migration class with cell-count check = migration z between -2 and 2; enough cells; nuclei per well, duplicate mean = 5899; Outcome = inactive
STEEP1 (GeneID 63932): migration robust z-score = 0.86; migration class with cell-count check = migration z between -2 and 2; enough cells; nuclei per well, duplicate mean = 5868; Outcome = inactive
TMEM243 (GeneID 79161): migration robust z-score = -0.4; migration class with cell-count check = migration z between -2 and 2; enough cells; nuclei per well, duplicate mean = 5832; Outcome = inactive
VSTM2A (GeneID 222008): migration robust z-score = 0.02; migration class with cell-count check = migration z between -2 and 2; enough cells; nuclei per well, duplicate mean = 6492; Outcome = inactive
UMODL1 (GeneID 89766): migration robust z-score = -0.18; migration class with cell-count check = migration z between -2 and 2; enough cells; nuclei per well, duplicate mean = 6386; Outcome = inactive
LGR4 (GeneID 55366): migration robust z-score = 0.62; migration class with cell-count check = migration z between -2 and 2; enough cells; nuclei per well, duplicate mean = 6247; Outcome = inactive
TIGD2 (GeneID 166815): migration robust z-score = 0.12; migration class with cell-count check = migration z between -2 and 2; enough cells; nuclei per well, duplicate mean = 6734; Outcome = inactive

Laid out differently: entries from further up.
{"gene": "UNC45B (GeneID 146862)", "migration robust z-score": -0.32, "migration class with cell-count check": "migration z between -2 and 2; enough cells", "nuclei per well, duplicate mean": 6752, "Outcome": "inactive"}
{"gene": "TECRL (GeneID 253017)", "migration robust z-score": 0.71, "migration class with cell-count check": "migration z between -2 and 2; enough cells", "nuclei per well, duplicate mean": 5799, "Outcome": "inactive"}
